{"source": "PubChem BioAssay AID504834", "about": "(National Center for Advancing Translational Sciences (NCATS), 2011)", "note": "Among all 320,000 compounds or so, about 22,000 (6.9%) were called active. The shares of active, inactive and inconclusive entries below differ from those in the screen. Calls come from the whole dose curve; as a rule, active = well fitted inhibition curve with a large enough effect; inconclusive = small, poorly fitted or top-dose-only effect, or another doubt; inactive = no such curve, though single readings can be large or run the other way. Where the call is inconclusive, the potency comes from a doubtful curve fit. % is set by controls: 0 for no effect and ±100 for the full control effect; potency is the fitted concentration of half-maximal effect."}
{"assay": "Primary qHTS for delayed death inhibitors of the malarial parasite plastid, 96 hour incubation", "conditions": "P. falciparum luciferase reporter growth; series mostly up to 28.7 µM; activity change, negative = inhibition: at the top concentration", "method_in_brief": "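96 h incubation, 37 C, 5% CO2, of luciferase-reporter P. falciparum-infected RBCs (2% hematocrit, 0.05% parasitemia final) with test compounds; endpoint luminescence.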"}
{"smiles": "CCOc1ccccc1NC(=O)CN1CCc2ccccc2C1", "Potency": "inconclusive: 7.38 µM [inhibitor, partial curve]"}
{"smiles": "NC(=O)[C@@H]1CC2(CC(c3cccc(NC(=O)COc4ccc(Cl)cc4)c3)=NO2)CN1C(=O)c1ccccc1", "note": "(some centres undefined)", "Potency": "active: 13.1 µM"}
{"smiles": "COc1ccc(NC(=O)c2cccn(CC=C(C)C)c2=O)cc1", "activity change, negative = inhibition": "inactive: 39.5%"}
{"smiles": "Cc1nc(-c2ccc(F)cc2)c(CC(=O)N(C)CC(=O)Nc2ccccc2Cl)s1", "Potency": "active: 13.1 µM"}
{"smiles": "COc1ccc(OC)c2sc(NC(=O)c3ccc(S(=O)(=O)N(C)C)cc3)nc12", "Potency": "inconclusive: 13.1 µM [inhibitor, single point]"}
{"smiles": "CC1CCCCC1NC(=O)COC(=O)c1c2c(nc3ccccc13)/C(=C/c1ccco1)CC2", "note": "(centres undefined)", "Potency": "active: 14.7 µM"}
{"smiles": "O=C(CC1SC(=O)N(c2ccccc2)C1=O)Nc1ccc(Cl)cc1", "note": "(centres undefined)", "activity change, negative = inhibition": "inactive: 36.9%"}
{"smiles": "CCc1ccccc1NC(=O)CSc1nnc(-c2cc(C)[nH]n2)n1N", "Potency": "inconclusive: 13.1 µM [inhibitor, partial curve, poor fit]"}
{"smiles": "COc1ccc(CCN(C(=O)C(F)(F)F)C(C(=O)NC2CCCC2)c2cccs2)cc1", "note": "(centres undefined)", "Potency": "inconclusive: 13.1 µM [inhibitor, partial curve, poor fit]"}
{"smiles": "COc1ccc(-c2nc(-c3cccc(C)c3)nc(N3CCN(C)CC3)c2C#N)cc1", "Potency": "inconclusive: 13.1 µM [inhibitor, partial curve, poor fit]"}
{"smiles": "O=C1CCC(C(=O)OCc2cc(Cl)ccc2OC(F)F)N1", "note": "(centres undefined)", "Potency": "inconclusive: 0.828 µM [inhibitor, full curve, poor fit]"}
{"smiles": "O=C(NCc1cccnc1)C(=O)Nc1cc2c3c(c1)CC(=O)N3CCC2", "Potency": "inconclusive: 18.5 µM [inhibitor, single point]"}
{"smiles": "CC(C)CCc1noc(CN2CCC(CCN3CCCC3=O)CC2)n1", "Potency": "active: 13.1 µM"}
{"smiles": "COc1ccc(N2CCN(Cc3nc4c(c(=O)[nH]c(=O)n4C)n3CC(C)=O)CC2)cc1", "activity change, negative = inhibition": "inactive: 6.51%"}
{"smiles": "Cc1ccc(Oc2nc(-c3ccccc3)ncc2S(=O)(=O)c2ccc(C)cc2)cc1", "activity change, negative = inhibition": "inactive: -1.95%"}
{"smiles": "CC(SC1=NCCS1)C(=O)Nc1nnc(-c2ccc(Br)cc2)s1", "note": "(centres undefined)", "Potency": "inconclusive: 4.15 µM [inhibitor, single point]"}
{"smiles": "O=S(=O)(NCC(Nc1ccccc1)c1ccccc1)c1ccc(Cl)cc1", "note": "(centres undefined)", "Potency": "inconclusive: 11.7 µM [inhibitor, single point]"}
{"smiles": "O=S(=O)(c1ccc(F)cc1)N1CCCc2ccccc21", "Potency": "active: 1.65 µM"}
{"smiles": "Cc1ccc(C)n1-c1nn(S(=O)(=O)c2ccccc2)c2cccc(F)c12", "Potency": "inconclusive: 13.1 µM [inhibitor, single point]"}
{"smiles": "CSc1nc(-c2ccccc2)nn1C(=O)c1ccc(Cl)cc1", "Potency": "inconclusive: 0.0738 µM [inhibitor, full curve]"}
{"smiles": "FC(F)(F)c1cnc(COc2cc(Cl)cc(Cl)c2)c(Cl)c1", "activity change, negative = inhibition": "inactive: -12.7%"}
{"smiles": "CCN(CC)CCCN(Cc1cc2cc(OC)ccc2[nH]c1=O)C(=O)Nc1ccc(F)cc1", "activity change, negative = inhibition": "inactive: -16.1% [at 5.75 µM]"}
{"smiles": "COC(=O)COc1ccc(S(=O)(=O)NCc2ccco2)cc1Cl", "activity change, negative = inhibition": "inactive: 4.01%"}
{"smiles": "CCCC(C)C(=O)Nc1nc(C)c(-c2csc(Nc3ccccc3OC)n2)s1", "note": "(centres undefined)", "Potency": "active: 9.28 µM"}
{"smiles": "O=C(CCc1ccc(S(=O)(=O)N2CCOCC2)cc1)Nc1ccc(N2CCOCC2)cc1", "Potency": "inconclusive: 14.7 µM [inhibitor, partial curve, poor fit]"}
{"smiles": "CC1(C)COCN1C(=O)c1ccc(Cl)c(Cl)c1", "activity change, negative = inhibition": "inactive: 16.2%"}
{"smiles": "CC(N=C(NS(=O)(=O)c1ccc(Cl)cc1)c1ccccc1)C(=O)O", "note": "(centres undefined)", "Potency": "inconclusive: 2.94 µM [inhibitor, partial curve, poor fit]"}
{"smiles": "CCc1ccccc1-n1c(SCC(=O)NC)nnc1-c1ccco1", "Potency": "inconclusive: 10.4 µM [inhibitor, single point]"}
{"smiles": "CC(C)Cc1cc(C(=O)Nc2cccnc2)no1", "activity change, negative = inhibition": "inactive: 0%"}
{"smiles": "COc1cc(OC)cc(C(=O)NCC(=O)OCC(=O)N2c3ccccc3NC(=O)C2(C)C)c1", "activity change, negative = inhibition": "inactive: 34.7%"}
{"smiles": "CCCC/C(C)=N/NC(=O)NC1CCCCC1", "Potency": "inconclusive: 10.4 µM [inhibitor, single point]"}
{"smiles": "CCCC(=O)NCCc1cc2ccc(OC)cc2[nH]c1=O", "Potency": "inconclusive: 14.7 µM [inhibitor, partial curve, poor fit]"}
{"smiles": "CCOC(=O)CSc1nnc(-c2c[nH]c3ccccc23)o1", "Potency": "inconclusive: 14.7 µM [inhibitor, partial curve, poor fit]"}
{"smiles": "Cc1cc(C)cc(NS(=O)(=O)c2csc(C(N)=O)c2)c1", "Potency": "inconclusive: 2.08 µM [inhibitor, full curve]"}
{"smiles": "CC(=O)CC(=O)Nc1ccc(C(N)=O)cc1", "Potency": "inconclusive: 4.15 µM [inhibitor, partial curve]"}
{"smiles": "CCc1ccccc1N(CC(=O)NC(C)(C)C)C(=O)CCC(=O)Nc1ccccn1", "Potency": "inconclusive: 18.5 µM [inhibitor, single point]"}
{"smiles": "Cc1ccc(S(=O)(=O)/C(C#N)=C/c2c(N3CCCCC3)nc3ccccn3c2=O)cc1", "Potency": "inconclusive: 0.37 µM [inhibitor, partial curve, poor fit]"}
{"smiles": "CCOC(=O)c1c(NC(=O)C2C3CCC(O3)C2C(=O)O)sc(C)c1-c1ccc(C)cc1", "note": "(centres undefined)", "activity change, negative = inhibition": "inactive: 53.1%"}
{"smiles": "Cc1cc(SCC(=O)c2ccc(O)c(O)c2)n2nc(C)c(-c3ccccc3)c2n1", "Potency": "inconclusive: 2.62 µM [inhibitor, full curve]"}
{"smiles": "CCOC(=O)c1ccc(-c2c(-c3ccccc3OC)sc3cc4c(cc23)OCO4)cc1F", "Potency": "inconclusive: 5.86 µM [inhibitor, single point]"}
{"smiles": "O=C(NNC(=O)c1ccccc1F)c1ccc2[nH]c(=O)c(=O)[nH]c2c1", "activity change, negative = inhibition": "inactive: 35.7%"}
{"smiles": "Cc1ccc(/C=C2/NC(=O)N(Cc3ccccc3)C2=O)s1", "Potency": "inconclusive: 6.57 µM [inhibitor, partial curve, poor fit]"}
{"smiles": "COc1ccc(C)cc1Nc1n[n+](-c2ccccc2)c(-c2ccc(C(=O)O)cc2)s1", "Potency": "active: 2.33 µM"}
